Source: patent publication US20210277098A1 (MITSUBISHI TANABE PHARMA, published 2021)
These are yes or no findings as the source states them, for the method shown. Binding calls can cover weak binding; strength is not graded here. For part of these data: Sequences can lack the tags named with a protein.

Legend:
[1] = biological target: Human RGMa protein (R&D systems, 2459-RM) (human); experiment: ELISA on immobilised human RGMa, antibody 125 ng/mL, no heat treatment
[2] = biological target: Human RGMa protein (R&D systems, 2459-RM) (human); experiment: ELISA on immobilised human RGMa; antibody in culture supernatant at 125 ng/mL after 10 min of heat treatment

binding [1] | binding [2] | Binder
binds | binds | humanized anti-RGMa antibody rH116A3 (combination of heavy chain HE and light chain KA) (antibody, human IgG1, kappa, V domains shown) VH: EVQLVESGGGLVQPGRSLRLSCTASGFTFSDAWMDWVRQAPGKGLEWVAEIRSKANNHATYYAESVKGRFTISRDDSKSIVYLQMNSLRTEDTALYYCTRRDGAYWGKGTTVTVSS VL: DIQMTQSPSSVSASVGDRVTITCRASQDISSYLNWYQQKPGKAPKLLIYYTSRLHSGVPSRFSGSGSGTDFTLTISSLQPEDFASYFCQQLNTLPWTFGGGTKVEMER
– | binds | HA/KC (antibody, human IgG1, kappa, V domains shown) VH: EVQLVESGGGLVQPGRSLRLSCTASGFTFSDAWMDWFRQAPGKGLEWVAEIRSKANNHATYYAESVKGRFTISRDDSKSIAYLQMNSLKTEDTALYYCTRRDGAYWGKGTTVTVSS VL: DIQMTQSPSSVSASVGDRVTITCRASQDISSYLNWYQQKPGKAVKLLIYYTSRLHSGVPSRFSGSGSGTDYTLTISSLQPEDFASYFCQQLNTLPWTFGGGTKVEMER
